Measurements from paper PMC9818449.
Like-named read-outs stand apart in the source and are kept apart here. Results are given in words; binding and its absence hold for the method and conditions named. In cells and extracts the contact can be indirect. Some results given as binding are weak or reduced against the parent protein; the word gives no strength. Each block holds one molecule with its values, some of them ahead of it.

By UniProt entry, the sequences of proteins in these tests, tags left out.
UniProt P31269: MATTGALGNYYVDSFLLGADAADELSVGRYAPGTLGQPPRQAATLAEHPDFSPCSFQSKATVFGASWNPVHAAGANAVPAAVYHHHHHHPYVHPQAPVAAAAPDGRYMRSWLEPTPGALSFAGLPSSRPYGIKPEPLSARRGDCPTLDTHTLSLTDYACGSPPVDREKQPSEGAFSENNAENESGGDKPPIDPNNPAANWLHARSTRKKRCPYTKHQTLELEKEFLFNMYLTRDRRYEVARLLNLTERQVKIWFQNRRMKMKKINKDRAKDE
UniProt P49639: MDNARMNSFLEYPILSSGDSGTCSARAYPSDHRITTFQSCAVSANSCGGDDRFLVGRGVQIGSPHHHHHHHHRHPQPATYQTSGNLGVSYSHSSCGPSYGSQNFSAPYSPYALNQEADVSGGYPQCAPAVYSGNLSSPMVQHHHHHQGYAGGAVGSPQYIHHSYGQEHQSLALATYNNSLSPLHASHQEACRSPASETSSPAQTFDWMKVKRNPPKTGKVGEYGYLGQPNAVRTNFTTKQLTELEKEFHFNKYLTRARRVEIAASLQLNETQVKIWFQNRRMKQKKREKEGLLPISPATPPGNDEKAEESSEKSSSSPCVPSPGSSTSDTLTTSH
UniProt P09630: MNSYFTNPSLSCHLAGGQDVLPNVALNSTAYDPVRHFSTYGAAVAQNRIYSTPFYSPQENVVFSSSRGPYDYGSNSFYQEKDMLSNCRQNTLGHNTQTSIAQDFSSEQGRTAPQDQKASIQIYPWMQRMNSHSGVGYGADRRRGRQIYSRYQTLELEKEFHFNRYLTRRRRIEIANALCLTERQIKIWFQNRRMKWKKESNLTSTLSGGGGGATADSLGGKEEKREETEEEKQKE
UniProt Q92826: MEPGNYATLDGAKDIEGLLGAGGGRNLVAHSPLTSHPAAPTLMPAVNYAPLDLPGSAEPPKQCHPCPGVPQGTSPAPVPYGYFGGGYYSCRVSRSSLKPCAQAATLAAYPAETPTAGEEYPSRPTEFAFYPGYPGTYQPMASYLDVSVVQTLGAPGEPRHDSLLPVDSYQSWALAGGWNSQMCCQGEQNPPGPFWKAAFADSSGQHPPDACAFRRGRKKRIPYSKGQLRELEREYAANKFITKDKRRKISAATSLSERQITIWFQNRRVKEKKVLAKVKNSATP
UniProt P31273: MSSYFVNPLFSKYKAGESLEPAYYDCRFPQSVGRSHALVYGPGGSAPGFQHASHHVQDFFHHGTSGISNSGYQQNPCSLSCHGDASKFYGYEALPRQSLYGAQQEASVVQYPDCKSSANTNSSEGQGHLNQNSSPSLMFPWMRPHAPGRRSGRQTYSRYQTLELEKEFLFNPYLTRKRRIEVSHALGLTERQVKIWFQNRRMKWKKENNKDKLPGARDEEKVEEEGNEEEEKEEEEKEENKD
UniProt P78337: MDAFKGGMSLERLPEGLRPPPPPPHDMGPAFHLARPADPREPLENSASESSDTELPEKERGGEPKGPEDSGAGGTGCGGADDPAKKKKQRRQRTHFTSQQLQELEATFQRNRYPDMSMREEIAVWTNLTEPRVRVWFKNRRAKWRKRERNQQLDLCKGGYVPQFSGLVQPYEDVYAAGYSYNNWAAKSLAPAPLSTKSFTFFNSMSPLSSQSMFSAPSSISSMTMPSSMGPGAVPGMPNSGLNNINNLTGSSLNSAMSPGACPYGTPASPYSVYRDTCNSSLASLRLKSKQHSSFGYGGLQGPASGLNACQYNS
UniProt Q99612: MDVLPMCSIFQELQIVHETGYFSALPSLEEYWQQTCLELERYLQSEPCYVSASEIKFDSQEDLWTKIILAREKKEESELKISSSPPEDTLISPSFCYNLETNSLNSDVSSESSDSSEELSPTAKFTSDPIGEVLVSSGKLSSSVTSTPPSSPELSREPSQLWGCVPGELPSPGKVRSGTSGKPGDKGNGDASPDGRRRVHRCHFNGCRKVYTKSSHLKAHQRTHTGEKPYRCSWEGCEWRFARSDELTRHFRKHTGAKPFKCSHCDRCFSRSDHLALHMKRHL
UniProt Q96F45: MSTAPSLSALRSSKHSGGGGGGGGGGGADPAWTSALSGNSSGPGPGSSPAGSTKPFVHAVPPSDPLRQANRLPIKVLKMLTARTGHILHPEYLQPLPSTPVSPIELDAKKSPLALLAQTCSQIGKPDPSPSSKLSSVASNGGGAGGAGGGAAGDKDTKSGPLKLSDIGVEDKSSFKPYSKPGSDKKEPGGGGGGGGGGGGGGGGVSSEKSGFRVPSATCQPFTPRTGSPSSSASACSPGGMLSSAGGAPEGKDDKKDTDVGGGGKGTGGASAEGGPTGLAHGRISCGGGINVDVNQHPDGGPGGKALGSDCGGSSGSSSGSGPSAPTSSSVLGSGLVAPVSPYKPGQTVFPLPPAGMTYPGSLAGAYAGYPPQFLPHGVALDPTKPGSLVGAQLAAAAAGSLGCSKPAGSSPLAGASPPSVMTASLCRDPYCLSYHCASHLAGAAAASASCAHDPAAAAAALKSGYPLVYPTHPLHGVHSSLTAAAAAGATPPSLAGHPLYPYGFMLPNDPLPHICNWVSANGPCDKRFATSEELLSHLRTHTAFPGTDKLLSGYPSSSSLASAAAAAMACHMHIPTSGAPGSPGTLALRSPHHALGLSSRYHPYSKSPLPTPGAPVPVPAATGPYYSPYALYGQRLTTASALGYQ

Key:
VN-HOXA9 (human) [1] = biological target: VN-HOXA9 (human) (UniProt P31269); test: split reporter; individual BiFC in live HEK293T cells: plix-VN-HOXA9, plix-CC-ORF and plix-mCherry co-transfected, 18 h with doxycycline 100 ng/mL, confocal imaging; HOXA9/PBX1 as calibrator
HA-HOXA9 (human) = HA-HOXA9 (human) (UniProt P31269); test: co-IP; HEK-293T co-transfected with HA-tagged HOX and CC-ORF, doxycycline 200 ng/mL, 48 h; NP40 buffer (20 mM Tris pH 7.5, 150 mM NaCl, 2 mM EDTA, 1% NP40), Benzonase; anti-HA magnetic beads; CC-ORF revealed with anti-GFP
VN-HOXA9 (human) [2] = biological target: VN-HOXA9 (human) (UniProt P31269); test: split reporter; Cell-PCA screen: VN-HOX bait plasmid transfected into CC-HEK-1 and CC-HEK-2 cells with the integrated CC-ORF library (basal TRE expression); BiFC-positive cells sorted by flow cytometry 18 h after transfection, ORFs identified by NGS; hits by log2FC >= 1.5 in both lines or >= 6 in one
VN-HOXA1 (human) [3] = biological target: VN-HOXA1 (human) (UniProt P49639); test: as above
VN-HOXC6 (human) = VN-HOXC6 (human) (UniProt P09630); test: as above
VN-HOXA9 (human) [4] = biological target: VN-HOXA9 (human) (UniProt P31269); test: as above; remark: listed apart in the source
HA-HOXB13 (human) = HA-HOXB13 (human) (UniProt Q92826); test: co-IP; HEK-293T co-transfected with HA-tagged HOX and CC-ORF, doxycycline 200 ng/mL, 48 h; NP40 buffer (20 mM Tris pH 7.5, 150 mM NaCl, 2 mM EDTA, 1% NP40), Benzonase; anti-HA magnetic beads; CC-ORF revealed with anti-GFP
VN-HOXB13 (human) [5] = biological target: VN-HOXB13 (human) (UniProt Q92826); test: split reporter; individual BiFC of VN-HOXB13 and CC-CREB3L4 in fixed HEK293T cells, mCherry reporter and DAPI, confocal imaging
VN-HOXB13 (human) [6] = biological target: VN-HOXB13 (human) (UniProt Q92826); test: split reporter; Cell-PCA screen: VN-HOX bait plasmid transfected into CC-HEK-1 and CC-HEK-2 cells with the integrated CC-ORF library (basal TRE expression); BiFC-positive cells sorted by flow cytometry 18 h after transfection, ORFs identified by NGS; hits by log2FC >= 1.5 in both lines or >= 6 in one
VN-HOXC8 (human) = VN-HOXC8 (human) (UniProt P31273); test: as above
VN-HOXA1 (human) [7] = biological target: VN-HOXA1 (human) (UniProt P49639); test: as above; remark: listed apart in the source

binding (VN-HOXA9 (human) [1]): binds
binding (HA-HOXA9 (human)): binds
binding (VN-HOXA9 (human) [2]): binds
Molecule: CC-PITX1 (from UniProt P78337 1-314)

binding (VN-HOXA9 (human) [1]): binds
binding (HA-HOXA9 (human)): binds
binding (VN-HOXA9 (human) [2]): binds
Molecule: CC-KLF6 (from UniProt Q99612 1-283)

binding (VN-HOXA1 (human) [3]): binds
Molecule: CC-ZNF503 (from UniProt Q96F45 1-646)

binding (VN-HOXC6 (human)): binds
B1: CC-PBX3 (protein, UniProt P40426 1-434)
chain: MDDQSRMLQTLAGVNLAGHSVQGGMALPPPPHGHEGADGDGRKQDIGDILHQIMTITDQSLDEAQAKKHALNCHRMKPALFSVLCEIKEKTGLSIRGAQEEDPPDPQLMRLDNMLLAEGVSGPEKGGGSAAAAAAAAASGGSSDNSIEHSDYRAKLTQIRQIYHTELEKYEQACNEFTTHVMNLLREQSRTRPISPKEIERMVGIIHRKFSSIQMQLKQSTCEAVMILRSRFLDARRKRRNFSKQATEILNEYFYSHLSNPYPSEEAKEELAKKCSITVSQVSNWFGNKRIRYKKNIGKFQEEANLYAAKTAVTAAHAVAAAVQNNQTNSPTTPNSGSSGSFNLPNSGDMFMNMQSLNGDSYQGSQVGANVQSQVDTLRHVINQTGGYSDGLGGNSLYSPHNLNANGGWQDATTPSSVTSPTEGPGSVHSDTSN

binding (VN-HOXA9 (human) [1]): binds
binding (HA-HOXA9 (human)): binds
binding (VN-HOXA9 (human) [4]): binds
B2: CC-NRF1 (protein, UniProt Q16656 1-503)
chain: MEEHGVTQTEHMATIEAHAVAQQVQQVHVATYTEHSMLSADEDSPSSPEDTSYDDSDILNSTAADEVTAHLAAAGPVGMAAAAAVATGKKRKRPHVFESNPSIRKRQQTRLLRKLRATLDEYTTRVGQQAIVLCISPSKPNPVFKVFGAAPLENVVRKYKSMILEDLESALAEHAPAPQEVNSELPPLTIDGIPVSVDKMTQAQLRAFIPEMLKYSTGRGKPGWGKESCKPIWWPEDIPWANVRSDVRTEEQKQRVSWTQALRTIVKNCYKQHGREDLLYAFEDQQTQTQATATHSIAHLVPSQTVVQTFSNPDGTVSLIQVGTGATVATLADASELPTTVTVAQVNYSAVADGEVEQNWATLQGGEMTIQTTQASEATQAVASLAEAAVAASQEMQQGATVTMALNSEAAAHAVATLAEATLQGGGQIVLSGETAAAVGALTGVQDANGLVQIPVSMYQTVVTSLAQGNGPVQVAMAPVTTRISDSAVTMDGQAVEVVTLEQ

binding (HA-HOXB13 (human)): binds
binding (VN-HOXB13 (human) [5]): binds
binding (VN-HOXB13 (human) [6]): binds
B3: CC-CREB3L4 (protein, UniProt Q8TEY5 1-395)
chain: MDLGIPDLLDAWLEPPEDIFSTGSVLELGLHCPPPEVPVTRLQEQGLQGWKSGGDRGCGLQESEPEDFLKLFIDPNEVYCSEASPGSDSGISEDPCHPDSPPAPRATSSPMLYEVVYEAGALERMQGETGPNVGLISIQLDQWSPAFMVPDSCMVSELPFDAHAHILPRAGTVAPVPCTTLLPCQTLFLTDEEKRLLGQEGVSLPSHLPLTKAEERVLKKVRRKIRNKQSAQDSRRRKKEYIDGLESRVAACSAQNQELQKKVQELERHNISLVAQLRQLQTLIAQTSNKAAQTSTCVLILLFSLALIILPSFSPFQSRPEAGSEDYQPHGVTSRNILTHKDVTENLETQVVESRLREPPGAKDANGSTRTLLEKMGGKPRPSGRIRSVLHADEM

binding (VN-HOXC8 (human)): binds
binding (VN-HOXA1 (human) [7]): binds
B4: CC-MEIS2 (protein, UniProt O14770 1-477)
chain: MAQRYDELPHYGGMDGVGVPASMYGDPHAPRPIPPVHHLNHGPPLHATQHYGAHAPHPNVMPASMGSAVNDALKRDKDAIYGHPLFPLLALVFEKCELATCTPREPGVAGGDVCSSDSFNEDIAVFAKQVRAEKPLFSSNPELDNLMIQAIQVLRFHLLELEKVHELCDNFCHRYISCLKGKMPIDLVIDERDGSSKSDHEELSGSSTNLADHNPSSWRDHDDATSTHSAGTPGPSSGGHASQSGDNSSEQGDGLDNSVASPGTGDDDDPDKDKKRQKKRGIFPKVATNIMRAWLFQHLTHPYPSEEQKKQLAQDTGLTILQVNNWFINARRRIVQPMIDQSNRAGFLLDPSVSQGAAYSPEGQPMGSFVLDGQQHMGIRPAGLQSMPGDYVSQGGPMGMSMAQPSYTPPQMTPHPTQLRHGPPMHSYLPSHPHHPAMMMHGGPPTHPGMTMSAQSPTMLNSVDPNVGGQVMDIHAQ
